No constants are given. Whether binding was seen depends on the method and setting. Binding seen in cells or lysates may run through a third protein. Some binding calls cover weakened binding; strength is not graded here.
Target: ApoB100 (apolipoprotein B100) (human (endogenous in HepG2)) (UniProt P04114)
Test: co-IP; HepG2 cell lysate incubated with anti-GLT8D2 and anti-apoB100 antibodies overnight at 4 °C with Protein-G/A beads; Western blot; rabbit irrelevant IgG as control

Protein sequences, listed by entry. Tags and fused reporters are not part of them. Residues count along the entry.
UniProt P04114, residues 28-4563: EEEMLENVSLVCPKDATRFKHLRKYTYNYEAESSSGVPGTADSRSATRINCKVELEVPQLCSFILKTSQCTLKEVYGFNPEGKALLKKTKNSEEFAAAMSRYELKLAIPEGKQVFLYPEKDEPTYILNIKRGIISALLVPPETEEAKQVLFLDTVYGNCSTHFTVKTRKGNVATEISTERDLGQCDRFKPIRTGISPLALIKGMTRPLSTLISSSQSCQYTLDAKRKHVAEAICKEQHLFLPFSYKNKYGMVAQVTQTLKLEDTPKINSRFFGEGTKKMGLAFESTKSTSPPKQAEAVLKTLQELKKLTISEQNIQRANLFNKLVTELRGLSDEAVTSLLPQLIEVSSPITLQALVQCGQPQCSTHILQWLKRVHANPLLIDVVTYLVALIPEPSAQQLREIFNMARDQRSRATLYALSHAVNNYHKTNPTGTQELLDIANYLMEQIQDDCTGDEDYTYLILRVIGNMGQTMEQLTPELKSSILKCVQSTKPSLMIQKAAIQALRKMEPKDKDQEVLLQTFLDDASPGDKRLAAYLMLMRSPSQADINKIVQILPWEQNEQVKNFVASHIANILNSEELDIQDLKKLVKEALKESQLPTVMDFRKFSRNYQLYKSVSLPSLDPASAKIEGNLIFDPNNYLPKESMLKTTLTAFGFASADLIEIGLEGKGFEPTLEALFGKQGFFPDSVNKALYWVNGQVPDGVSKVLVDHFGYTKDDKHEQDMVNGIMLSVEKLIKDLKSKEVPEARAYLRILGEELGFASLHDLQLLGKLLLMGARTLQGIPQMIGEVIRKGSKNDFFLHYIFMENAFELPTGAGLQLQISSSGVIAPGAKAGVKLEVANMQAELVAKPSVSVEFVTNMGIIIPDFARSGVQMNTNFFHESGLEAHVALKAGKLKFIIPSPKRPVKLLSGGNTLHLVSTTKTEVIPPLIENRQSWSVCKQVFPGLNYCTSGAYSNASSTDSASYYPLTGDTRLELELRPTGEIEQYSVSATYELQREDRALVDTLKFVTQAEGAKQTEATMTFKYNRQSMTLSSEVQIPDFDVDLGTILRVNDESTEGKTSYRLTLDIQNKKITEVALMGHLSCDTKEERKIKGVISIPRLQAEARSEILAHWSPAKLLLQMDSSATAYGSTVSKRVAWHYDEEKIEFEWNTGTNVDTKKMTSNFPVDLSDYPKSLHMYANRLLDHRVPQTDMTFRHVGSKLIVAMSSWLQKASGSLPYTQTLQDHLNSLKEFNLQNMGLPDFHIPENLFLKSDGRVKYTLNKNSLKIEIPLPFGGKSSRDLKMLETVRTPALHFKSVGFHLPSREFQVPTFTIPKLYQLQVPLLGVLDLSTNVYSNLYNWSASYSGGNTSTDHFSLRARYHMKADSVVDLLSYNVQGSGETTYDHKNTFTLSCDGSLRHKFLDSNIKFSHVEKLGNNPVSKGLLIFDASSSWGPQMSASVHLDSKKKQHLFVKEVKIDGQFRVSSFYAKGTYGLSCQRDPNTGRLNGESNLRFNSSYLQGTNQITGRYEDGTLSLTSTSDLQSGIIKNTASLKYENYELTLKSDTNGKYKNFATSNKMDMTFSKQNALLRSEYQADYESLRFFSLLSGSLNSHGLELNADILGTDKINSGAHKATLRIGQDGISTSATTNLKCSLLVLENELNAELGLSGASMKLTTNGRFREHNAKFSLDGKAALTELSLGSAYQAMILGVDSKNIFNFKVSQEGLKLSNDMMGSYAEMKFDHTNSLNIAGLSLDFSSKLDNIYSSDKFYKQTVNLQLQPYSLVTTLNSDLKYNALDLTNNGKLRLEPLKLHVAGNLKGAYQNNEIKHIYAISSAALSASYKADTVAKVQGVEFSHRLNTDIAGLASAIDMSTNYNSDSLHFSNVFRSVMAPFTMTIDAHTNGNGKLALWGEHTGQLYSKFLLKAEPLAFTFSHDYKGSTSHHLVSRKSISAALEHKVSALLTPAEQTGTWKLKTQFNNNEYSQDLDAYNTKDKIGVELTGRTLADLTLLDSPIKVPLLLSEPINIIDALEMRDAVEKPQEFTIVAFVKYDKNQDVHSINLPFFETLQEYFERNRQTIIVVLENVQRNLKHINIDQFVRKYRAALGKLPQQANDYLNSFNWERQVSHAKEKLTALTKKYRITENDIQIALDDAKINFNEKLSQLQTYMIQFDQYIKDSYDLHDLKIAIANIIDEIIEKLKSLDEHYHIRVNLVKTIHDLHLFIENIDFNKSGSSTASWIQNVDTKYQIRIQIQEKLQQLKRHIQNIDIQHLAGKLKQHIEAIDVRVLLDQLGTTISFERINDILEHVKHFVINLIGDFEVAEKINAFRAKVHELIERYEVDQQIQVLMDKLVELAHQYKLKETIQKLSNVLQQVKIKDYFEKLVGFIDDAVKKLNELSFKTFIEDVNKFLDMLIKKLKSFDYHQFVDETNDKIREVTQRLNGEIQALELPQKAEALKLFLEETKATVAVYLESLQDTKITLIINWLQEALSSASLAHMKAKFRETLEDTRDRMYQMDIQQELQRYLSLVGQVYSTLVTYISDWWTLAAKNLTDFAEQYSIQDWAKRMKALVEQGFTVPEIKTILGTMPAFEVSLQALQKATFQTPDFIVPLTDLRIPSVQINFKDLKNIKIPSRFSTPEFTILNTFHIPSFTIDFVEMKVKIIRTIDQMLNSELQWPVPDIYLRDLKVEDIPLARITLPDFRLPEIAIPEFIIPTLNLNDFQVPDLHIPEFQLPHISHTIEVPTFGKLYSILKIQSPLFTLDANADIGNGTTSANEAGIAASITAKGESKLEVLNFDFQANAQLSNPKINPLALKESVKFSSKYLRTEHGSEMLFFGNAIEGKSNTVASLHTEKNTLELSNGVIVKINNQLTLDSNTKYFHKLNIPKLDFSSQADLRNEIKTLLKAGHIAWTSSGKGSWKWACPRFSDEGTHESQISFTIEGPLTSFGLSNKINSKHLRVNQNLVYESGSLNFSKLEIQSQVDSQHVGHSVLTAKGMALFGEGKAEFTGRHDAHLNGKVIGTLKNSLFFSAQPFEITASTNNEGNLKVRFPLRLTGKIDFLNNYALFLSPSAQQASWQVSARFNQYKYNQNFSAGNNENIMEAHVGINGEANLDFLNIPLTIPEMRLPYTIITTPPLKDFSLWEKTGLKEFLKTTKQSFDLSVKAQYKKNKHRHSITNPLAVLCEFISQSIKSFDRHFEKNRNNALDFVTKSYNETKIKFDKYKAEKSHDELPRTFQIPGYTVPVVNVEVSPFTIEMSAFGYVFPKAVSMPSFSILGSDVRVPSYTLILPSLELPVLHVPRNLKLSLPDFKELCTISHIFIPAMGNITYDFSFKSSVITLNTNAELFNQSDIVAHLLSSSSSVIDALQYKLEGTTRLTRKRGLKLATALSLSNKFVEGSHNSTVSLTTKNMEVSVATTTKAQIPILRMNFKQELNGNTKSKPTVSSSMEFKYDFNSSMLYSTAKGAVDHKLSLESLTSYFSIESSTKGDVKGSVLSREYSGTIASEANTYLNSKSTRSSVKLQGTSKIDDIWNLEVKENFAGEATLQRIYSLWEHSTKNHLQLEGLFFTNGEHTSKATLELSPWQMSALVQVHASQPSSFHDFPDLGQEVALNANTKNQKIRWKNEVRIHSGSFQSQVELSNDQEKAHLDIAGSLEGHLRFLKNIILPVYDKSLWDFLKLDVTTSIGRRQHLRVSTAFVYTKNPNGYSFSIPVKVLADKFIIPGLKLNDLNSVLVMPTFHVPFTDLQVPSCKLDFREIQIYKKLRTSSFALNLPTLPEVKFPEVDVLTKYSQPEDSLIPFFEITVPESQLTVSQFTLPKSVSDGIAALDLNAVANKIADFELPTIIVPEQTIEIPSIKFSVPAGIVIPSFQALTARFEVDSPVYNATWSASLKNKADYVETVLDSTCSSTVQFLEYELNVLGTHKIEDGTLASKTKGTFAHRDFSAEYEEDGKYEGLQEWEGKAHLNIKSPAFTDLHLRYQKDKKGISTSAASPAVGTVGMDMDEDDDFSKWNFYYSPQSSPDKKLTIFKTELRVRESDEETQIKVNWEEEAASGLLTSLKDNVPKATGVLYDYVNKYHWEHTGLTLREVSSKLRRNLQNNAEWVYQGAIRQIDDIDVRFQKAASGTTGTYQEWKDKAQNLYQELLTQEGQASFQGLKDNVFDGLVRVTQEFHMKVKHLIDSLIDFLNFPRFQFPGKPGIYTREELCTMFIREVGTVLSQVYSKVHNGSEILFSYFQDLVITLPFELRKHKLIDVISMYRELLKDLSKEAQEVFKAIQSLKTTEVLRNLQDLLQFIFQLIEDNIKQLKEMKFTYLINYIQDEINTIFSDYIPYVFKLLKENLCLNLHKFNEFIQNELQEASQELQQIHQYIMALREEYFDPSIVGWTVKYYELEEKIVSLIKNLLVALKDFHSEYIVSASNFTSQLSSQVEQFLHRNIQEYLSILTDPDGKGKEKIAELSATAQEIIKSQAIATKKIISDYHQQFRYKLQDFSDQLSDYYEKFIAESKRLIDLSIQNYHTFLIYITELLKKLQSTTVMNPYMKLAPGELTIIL

B1: GLT8D2 (glycosyltransferase 8 domain containing 2) (enzyme, UniProt Q9H1C3 1-349)
chain: MALLRKINQVLLFLLIVTLCVILYKKVHKGTVPKNDADDESETPEELEEEIPVVICAAAGRMGATMAAINSIYSNTDANILFYVVGLRNTLTRIRKWIEHSKLREINFKIVEFNPMVLKGKIRPDSSRPELLQPLNFVRFYLPLLIHQHEKVIYLDDDVIVQGDIQELYDTTLALGHAAAFSDDCDLPSAQDINRLVGLQNTYMGYLDYRKKAIKDLGISPSTCSFNPGVIVANMTEWKHQRITKQLEKWMQKNVEENLYSSSLGGGVATSPMLIVFHGKYSTINPLWHIRHLGWNPDARYSEHFLQEAKLLHWNGRHKPWDFPSVHNDLWESWFVPDPAGIFKLNHHS
binding: binds
